61 molecules from PubChem BioAssay AID2685 (National Center for Advancing Translational Sciences (NCATS), 2010) can be followed below.

The other results are listed elsewhere or left out. Further columns of the screen follow, without active or inactive calls. The list favours compounds with an active or inconclusive main result. Words in brackets tell the shape of the fitted curve; partial curves, single points and poor fits give uncertain potencies.

This assay is described as follows: qHTS Assay for Lipid Storage Modulators in Drosophila S3 Cells.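 On cell number change: cells counted by Cell Tracker Red CMTPX staining in the red channel.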 The conditions noted are these: BODIPY lipid droplet fluorescence, 18-24 h; for cell number change: measured here: cell count max response, cells fed with added oleic acid. The procedure, abridged:
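Drosophila S3 cells got compounds at several concentrations plus oleic acid (400 uM solution). Laser-scanning cytometry with 488 nm excitation read lipid droplets at 500-530 nm and cells at 575-640 nm. Percent activity was relative to 20 uM Triacsin C.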

Where [1] appears, read: measured here: cell number channel AC50, cells fed with added oleic acid.
Where [2] appears, read: measured here: lipid fluorescence (Fed channel) AC50, cells fed with added oleic acid.

In general, AC50 refers to the concentration at which the activity in the assay is half-maximal. Low readings indicate activity at low concentration, high ones activity only at high concentration.

As for `CC(C)C(C)NC(=O)CN1C(=O)NC2(CCCc3ccccc32)C1=O` (centres undefined), the cell number change is -2.54%.

Turning to `COc1ccccc1NC(=O)Cn1nc(-c2ccc(Cl)cc2)c2ccccc2c1=O`, the AC50 under setting [1] was 1.3 µM [rising, partial curve].

For the molecule `COc1cccc(-c2cc(C(=O)Nc3cc(C)n(Cc4ccc(Cl)cc4)n3)no2)c1`, under setting [2], the AC50 was 3.26 µM [rising, partial curve].

Regarding `Cc1ccc(S(=O)(=O)N2CCN(C(=O)c3ccc(N4CCCC4)c([N+](=O)[O-])c3)CC2)cc1`, the cell number change was -8.71%. Moreover, the AC50 under setting [2] is 0.731 µM [falling, single point].

As to `COc1cccc2c(C)cc(N3CCCCCC3)nc12`, the cell number change is -16%.

Consider `Cc1ccc(C(C(=O)NC(C)(C)C)N(C(=O)c2csnn2)c2ccccc2F)o1` (centres undefined), for which the cell number change came to 3.04%. Also, under setting [2], the AC50 was 5.8 µM [falling, full curve].

`CCN1C(=O)[C@H]2[C@@H](c3ccc(C)cc3)N3C(=O)N(c4ccccc4)C(=O)[C@@]3(Cc3ccc(Cl)cc3)[C@H]2C1=O`: the cell number change is 9.39%.

As for `O=C(COC(=O)c1ccccc1NCc1ccco1)Nc1ccc2c(c1)OCO2`, the cell number change was -33.5%. Under setting [1], the concentration at half-maximal activity (AC50) was 29.1 µM [falling, single point].

As to `CCN1CCCC1CN(Cc1cc2c(C)cc(C)cc2[nH]c1=O)C(=O)NC1CCCCC1` (centres undefined), the cell number change was 2.2%. Further, the AC50 under setting [2] is 16.4 µM [falling, single point].

For `O=C(COc1ccc2c3c(c(=O)oc2c1)CCC3)N1CCCCC1`, the cell number change amounted to 5.13%. Besides, the AC50 under setting [2] is 29.1 µM [falling, partial curve, poor fit].

As for `O=C(CP(=O)(c1ccccc1)c1ccccc1)N1CCOCC1`, the cell number change is 21.9%. Under setting [2], the AC50 was 13 µM [rising, single point].

Take `COc1ccc(-n2c(=S)[nH]c3sc(-c4ccccc4)cc3c2=O)c(OC)c1`: the cell number change was -9.29%.

With `CN(CC(=O)Nc1cccc(F)c1)C(=O)c1cccc(N2C(=O)CCC2=O)c1`, the cell number change is 2.81%.

For `CCCC1CC(CSC(=N)N)OC1=O` (centres undefined), the cell number change was -32.9%. Besides, the AC50 under setting [1] is 0.13 µM [falling, full curve]. Besides, the AC50 under setting [2] is 0.146 µM [falling, full curve, poor fit].

Regarding `O=C(CCc1nnc2ccc(N3CCCC3)nn12)Nc1ccc(F)cc1F`, the AC50 under setting [2] was 6.51 µM [rising, single point].

`COc1ccc(S(=O)(=O)Cc2ccc(C(=O)O)o2)cc1`: the cell number change is -23.4%. Further, the AC50 under setting [2] was 29.1 µM [falling, single point].

As for `COc1ccc(C2(CNC(=O)C(=O)Nc3ccc(C)cc3)CCOCC2)cc1`, the cell number change came to 36.3%. Also, the AC50 under setting [1] is 23.1 µM [rising, partial curve, poor fit]. Moreover, under setting [2], the AC50 was 3.66 µM [rising, partial curve, poor fit].

For `OCCN1CCN(C2Cc3cc(Cl)ccc3Sc3ccc(Cl)cc32)CC1` (centres undefined) (tested in a mixture with another compound), the cell number change was -53.7%. In addition, the AC50 under setting [1] is 16.4 µM [falling, single point]. Also, the concentration at half-maximal activity (AC50) under setting [2] is 16.4 µM [falling, single point].

Turning to `CCC(C)[C@H](NC(=O)C1CC(=O)N(c2ccc3c(c2)OCCO3)C1)C(=O)N1CCCCC1` (some centres undefined), the cell number change was 24.5%.

`N#CC1=C(N)Oc2nc[nH]c(=O)c2C1c1cccs1` (centres undefined): the cell number change is -8.74%. Further, the AC50 under setting [2] was 3.26 µM [falling, partial curve, poor fit].

`Cn1c(/C=C/N(Cc2ccccc2)c2ccccc2)c([N+](=O)[O-])c(=O)n(C)c1=O`: under setting [2], the half-maximal activity concentration (AC50) was 2.31 µM [rising, partial curve, poor fit].

Regarding `COc1ccc(OC)c(CN2CCN(C(=O)CNC(=O)c3ccc(C(C)(C)C)cc3)CC2)c1`, under setting [2], the AC50 was 2.06 µM [falling, partial curve].

For the molecule `O=C1Nc2cc(C(=O)NCCCN3CCOCC3)ccc2S/C1=C/c1ccccc1F`, the cell number change was -23%. Besides, under setting [2], the concentration at half-maximal activity (AC50) is 29.1 µM [falling, single point].

As for `CCc1ccccc1Nc1nc(N)nc(CSCC(=O)c2cc(C)n(C)c2C)n1`, the cell number change came out at 20.9%. In addition, the AC50 under setting [2] is 4.11 µM [rising, partial curve].

`COc1cc(/C=N/n2nnnc2N)ccc1OCC(N)=O`: the cell number change is -20.5%. Under setting [2], the AC50 was 0.58 µM [rising, full curve].

As to `CCC(=O)Nc1nc(CC(=O)Nc2ccccc2)cs1`, the cell number change amounted to 29.9%. For the same molecule, the AC50 under setting [2] was 7.31 µM [falling, single point].

Take `O=C(Nc1ccccc1C(=O)N/N=C/c1ccco1)c1ccc(F)cc1`: the cell number change was -1.84%. Also, the AC50 under setting [2] was 3.26 µM [rising, partial curve].

Regarding `O=[N+]([O-])c1ccc(Nc2ccc(Cl)cc2)nc1`, the cell number change is 17.2%. For the same molecule, the AC50 under setting [2] is 0.00461 µM [rising, full curve, poor fit].

With `O=C1NC(=S)/C(=C\c2ccc(-c3ccccc3Cl)o2)S1`, the cell number change is -33.3%. In addition, the AC50 under setting [1] is 0.00461 µM [falling, full curve, poor fit].

Regarding `CCn1c(=O)c(C(=O)Nc2ccccc2)c(O)c2ccccc21`, the cell number change turned out to be 5.89%. Besides, under setting [2], the AC50 was 7.31 µM [rising, partial curve, poor fit].

On to `CC(C)c1cccc(C(C)C)c1NC(=O)COC(=O)c1ccc2c(c1)S(=O)(=O)c1ccccc1C2=O`, for which the cell number change was found to be 7.72%. Also, the AC50 under setting [1] was 2.06 µM [falling, partial curve].

With `NC(=O)NCCc1ccccc1`, the cell number change stood at 15.3%. For the same molecule, the AC50 under setting [2] was 6.51 µM [falling, single point].

Regarding `CC(NC(=O)CN(c1ccc(F)cc1)S(C)(=O)=O)c1ccccc1` (centres undefined), under setting [2], the AC50 was 10.3 µM [falling, partial curve].

Turning to `CCOC(=O)C(CCCOc1ccc(C(C)CC)cc1)C(=O)OCC` (centres undefined), the cell number change was determined as 3.37%. In addition, the AC50 under setting [2] is 0.116 µM [falling, full curve, poor fit].

Take `COc1cc(OC)cc(C(=O)O/N=C(\N)c2ccccn2)c1`: the cell number change was 10.7%. Also, the AC50 under setting [2] was 16.4 µM [rising, single point].

For the molecule `CCC(=O)N1c2ccc(S(=O)(=O)N3CCN(C)CC3)cc2CC1C` (centres undefined), the cell number change worked out at 25.2%. Also, the AC50 under setting [2] was 29.1 µM [falling, single point].

Take `COc1cccc(C(=O)N2CCN(C(=O)Cc3ccccc3)CC2)c1`: the cell number change was -1.43%. Further, the AC50 under setting [2] was 3.26 µM [falling, single point].

Regarding `CC(C)(C)n1nnnc1C(c1cccs1)N(Cc1cccnc1)Cc1ccco1` (centres undefined), the concentration at half-maximal activity (AC50) under setting [2] was 6.51 µM [rising, partial curve].

In the case of `CCN(CC(=O)Nc1ccc(OC)cc1)C(=O)Cc1ccc(OC)c(S(=O)(=O)N2CCOCC2)c1`, the cell number change worked out at 3.97%. Moreover, the AC50 under setting [2] is 2.06 µM [rising, partial curve].

As to `CSc1ccccc1NC(=O)CSc1n[nH]c(C)c1[N+](=O)[O-]`, the cell number change is -14.8%. Moreover, the AC50 under setting [2] is 2.91 µM [falling, single point].

Consider `Cc1ccc(-c2csc(N3CCN(c4cc5c(cc4Cl)nc(C)n5CCN4CCCCC4)CC3)n2)cc1`, for which the cell number change came to 16.2%. Moreover, the concentration at half-maximal activity (AC50) under setting [2] is 0.731 µM [falling, full curve, poor fit].

In the case of `CC(C)CC(c1nnnn1CC1CCCO1)N1CCN(C2CCCC2)CC1` (centres undefined), the cell number change is -0.0718%. For the same molecule, the AC50 under setting [2] was 6.51 µM [falling, single point].

As for `CCN(CC)S(=O)(=O)c1ccc(N2CCN(S(=O)(=O)c3ccc4c(c3)OCCO4)CC2)nc1`, the AC50 under setting [1] is 4.61 µM [rising, partial curve, poor fit].

Turning to `CCc1cccc(CC)c1NC(=O)NC1CCCCC1`, the cell number change amounted to 2.25%.

Take `C[C@@H]1CN(C(=O)c2nc3ccc(Cl)cn3c2CN2CCc3sccc3C2)C[C@H](C)O1`: the cell number change was -12.2%. For the same molecule, the AC50 under setting [2] was 3.66 µM [falling, single point].

`CC[C@@H]1Cc2cc(O)ccc2C2=C1c1ccc(O)cc1C[C@H]2CC`: the cell number change is -43.8%. The AC50 under setting [1] is 20.6 µM [falling, single point]. Under setting [2], the AC50 was 29.1 µM [falling, single point].

Regarding `COc1ccc(NS(=O)(=O)c2cccc(C(=O)N/N=C/c3ccccn3)c2)cc1`, the AC50 by setting is: under setting [1], 0.116 µM [rising, full curve]; under setting [2], 0.13 µM [rising, partial curve, poor fit].

Consider `Cc1ccc(C(=O)C2COC(=O)C2)cc1` (centres undefined), for which the cell number change stood at 0.671%. Under setting [2], the AC50 was 0.116 µM [rising, full curve, poor fit].

On to `COc1ccc(S(=O)(=O)Nc2cccnc2)cc1OC`, for which the cell number change was 24%. Besides, the concentration at half-maximal activity (AC50) under setting [2] is 6.51 µM [rising, single point].

For the molecule `CC(Oc1cccc(Cl)c1)C(=O)N1CCCN(C)CC1` (centres undefined), the cell number change is -4.18%. Under setting [2], the AC50 was 29.1 µM [falling, single point].

`Cc1ccccc1-c1ccc(=O)n(CC(=O)Nc2ccc(C(=O)N3CCCC3)cc2)n1`: the cell number change is -18.5%.

Consider `Clc1ccc(Nc2ccc(Cl)nn2)cc1`, for which the cell number change was -0.335%. Besides, the concentration at half-maximal activity (AC50) under setting [2] is 0.058 µM [falling, full curve, poor fit].

With `Cc1cccc(N(C(=O)c2snc(C(N)=O)c2N)C(C(=O)NCC2CCCO2)c2c[nH]c3ccccc23)c1` (centres undefined), the cell number change came to 10.3%. For the same molecule, the AC50 under setting [2] is 0.116 µM [rising, single point].

As to `Cc1ccccc1CN1CCN(CC(=O)NCc2ccccc2)CC1`, the cell number change stood at 7.69%.

On to `O=C1CN(C(=O)CSc2nnc(-c3ccccc3)n2Cc2ccc3c(c2)OCO3)c2ccccc2N1`, for which the cell number change is -70.8%. For the same molecule, under setting [1], the AC50 is 23.1 µM [falling, single point]. The AC50 under setting [2] was 29.1 µM [falling, partial curve].

Take `O=C(C[n+]1cc(Br)cc2ccccc21)c1ccc(Cl)cc1`: the AC50 under setting [2] is 29.1 µM [rising, single point].

For `Cc1ccc(OCCSc2ncnc3nc[nH]c23)cc1`, the cell number change was -16.9%.

For the molecule `Cc1nc2ccccc2c(=O)n1/N=C/c1ccccc1OC(F)F`, the cell number change came to 1.65%. The AC50 under setting [2] was 0.116 µM [rising, full curve, poor fit].

Regarding `Cc1nnc(SCC(=O)NCC(=O)Nc2ccc(F)c(F)c2F)n1Cc1ccccc1`, the cell number change was -10.1%. Besides, the AC50 under setting [2] was 16.4 µM [falling, partial curve].

`Cc1sc(NC(=O)C2CCCCC2C(=O)O)c(C(N)=O)c1C` (centres undefined): the cell number change was -19.6%. Besides, the AC50 under setting [2] was 2.91 µM [falling, full curve].

Turning to `FC(F)(F)c1ccccc1/C=N/n1c(C2CCCCC2)n[nH]c1=S`, the cell number change was -38.5%. Further, the AC50 under setting [1] is 32.6 µM [falling, single point]. Besides, under setting [2], the AC50 was 32.6 µM [falling, single point].
